Laboratory results: patent US20240400559A1, “SOLID STATE EMITTERS BASED ON PYRIDINIUM SCAFFOLDS” (Council of Scientific and Industrial Research, priority 2021, published 2024)

System: BHK-21 cells
Assay: Confocal colocalization microscopy with MitoTracker Red
Format: cell-based
Details: 0.3 μM Mitotracker Red, incubation 15 min

| SMILES | Pearson's correlation coefficient with MitoTracker Red (2 μM dye) | Pearson's correlation coefficient with MitoTracker Red (0.2 μM dye) |
| --- | --- | --- |
| COc1ccc(-c2cccc3c4cc(C)ccc4cc(-c4ccccc4)[n+]23)cc1.O=S(=O)([O-])C(F)(F)F [2m, 4-(4-methoxyphenyl)-10-methyl-6-phenylpyrido[2,1-a]isoquinolin-5-ium trifluoro methanesulfonate] | 0.94 and 0.94±0.04 |  |
| COc1ccc(-c2cccc3c4cc(OC)cc(OC)c4cc(-c4ccccc4)[n+]23)cc1.O=S(=O)([O-])C(F)(F)F [2u, 8,10-dimethoxy-4-(4-methoxyphenyl)-6-phenylpyrido[2,1-a]isoquinolin-5-ium trifluoromethanesulfonate] | 0.95 | 0.95±0.02 |

Where “and” joins values, the source holds several entries; their conditions need not be identical. Equal values may be shown once.
